Data reported in article PMC7862700.
The entries are a selection whose mix differs from that of the whole data set. At the low end of the ranking, values are background and their order means little.

target: SPI1 (UniProt P17947); assay: DAPPL (digital affinity profiling via proximity ligation, sequencing); settings: 10 mM Tris-HCl pH 7.5, 50 mM NaCl, 1 mM DTT, 4% glycerol, room temperature, 30 min; GST-TFs on glutathione beads, 16-mer random dsDNA library, 0.1% …; high values mean tight binding; double strand, one strand shown; scale: fold enrichment (6-mer frequency, TF over GST control)

Sequence	binding signal
CAGTTT	0.801
TACCAG	0.855
CGTCGT	0.872
CAGCCG	0.624
CCGTGG	0.423
GTCGCC	0.931
TCAGGT	0.865
AGGGGT	0.825
ATCGGA	0.399
ACCAGA	0.835
GTCATC	0.884
GGCATC	0.799
AGGTGC	0.588
GTCAAT	0.851
GGACTG	0.594
GCAGCG	0.734
GTCGTA	0.651
GTAGTA	0.875
GTCGGG	0.24
CGTCAG	0.847

Sequence	binding signal
AGGGCA	0.767
GGAGCG	0.35
TCGGTG	0.454
AAAGAG	1.45
TTAGAC	0.847
AGTCCA	0.821
GGCCAG	0.444
AGGCGA	0.502
GGAGGG	0.301
GCGCCA	0.751
GTGGGC	0.795
GGCTGT	0.787
GGTTCG	0.778
CAGCAA	0.912
AGCACC	0.918
GGCAGT	0.48
CCCGTG	0.527
GGAGCA	0.462
GCCGTT	0.802

Retrieved one by one from above, 2 records:
Sequence	binding signal
GCCGTT	0.802
AGCACC	0.918
